From US20080022467A1, “Disazo dyes and their preparation and use” (ILFORD Imaging Switzerland GmbH, priority 2006, published 2008)

Key:
[1] = Color saturation C* of printed patches; set-up: key: A: excellent; B: good; C: satisfactory; D: unsatisfactory; conditions: for Color Saturation C* (Class) on Recording Sheet A: A: HP Printing Paper HPP 1122 (paper); for Color Saturation C* (Class) on Recording Sheet B: B: HP Premium Plus (polymer based); for Color Saturation C* (Class) on Recording Sheet C: C: ILFORD Galerie Smooth Glossy (nanoporous); for Color Saturation C* (Class) on Recording Sheet D: D: ILFORD Printasia Premium Photo Glossy Paper (nanoporous); for Color Saturation C* (Class) on Recording Sheet E: E: ILFORD Galerie Classic Gloss Paper (polymer based); for Color Saturation C* (Class) on Recording Sheet F: F: EPSON Premium Glossy Photo Paper (nanoporous); for Color Saturation C* (Class) on Recording Sheet G: G: CANON Photo Paper Pro PR-101 (nanoporous)
[2] = Dye diffusion of printed grid patches on storage; set-up: key: A: excellent; B: good; C: satisfactory; D: unsatisfactory; conditions: 7 days, 40° C., 80% relative humidity; for Dye Diffusion (Class) on Recording Sheet A: A: HP Printing Paper HPP 1122 (paper); for Dye Diffusion (Class) on Recording Sheet B: B: HP Premium Plus (polymer based); for Dye Diffusion (Class) on Recording Sheet C: C: ILFORD Galerie Smooth Glossy (nanoporous); for Dye Diffusion (Class) on Recording Sheet D: D: ILFORD Printasia Premium Photo Glossy Paper (nanoporous); for Dye Diffusion (Class) on Recording Sheet E: E: ILFORD Galerie Classic Gloss Paper (polymer based); for Dye Diffusion (Class) on Recording Sheet F: F: EPSON Premium Glossy Photo Paper (nanoporous); for Dye Diffusion (Class) on Recording Sheet G: G: CANON Photo Paper Pro PR-101 (nanoporous)

Molecule	Color Saturation C* (Class) on Recording Sheet A [1]	Color Saturation C* (Class) on Recording Sheet B [1]	Color Saturation C* (Class) on Recording Sheet C [1]	Color Saturation C* (Class) on Recording Sheet D [1]	Color Saturation C* (Class) on Recording Sheet E [1]	Color Saturation C* (Class) on Recording Sheet F [1]	Color Saturation C* (Class) on Recording Sheet G [1]	Dye Diffusion (Class) on Recording Sheet A [2]	Dye Diffusion (Class) on Recording Sheet B [2]	Dye Diffusion (Class) on Recording Sheet C [2]	Dye Diffusion (Class) on Recording Sheet D [2]	Dye Diffusion (Class) on Recording Sheet E [2]	Dye Diffusion (Class) on Recording Sheet F [2]	Dye Diffusion (Class) on Recording Sheet G [2]
Cc1cc(Nc2nc(NCCO)nc(Nc3ccc(/N=N/c4cc(S(=O)(=O)[O-])c5cccc(S(=O)(=O)[O-])c5c4)c(C)c3)n2)ccc1/N=N/c1cc(S(=O)(=O)[O-])c2cccc(S(=O)(=O)[O-])c2c1.[Na+].[Na+].[Na+].[Na+] [Dye No. II, Direct Yellow 86, reference compound]	D	D	D	D	D	D	D	A	D	C	B	C	C	A
O=S(=O)([O-])c1cc(/N=N/c2ccc(Nc3nc(NCCCN4CCOCC4)nc(Nc4ccc(/N=N/c5cc(S(=O)(=O)[O-])c6cccc(S(=O)(=O)[O-])c6c5)cc4)n3)cc2)cc2c(S(=O)(=O)[O-])cccc12.[Na+].[Na+].[Na+].[Na+] [Dye No. IV, reference compound]	C	B	C	B	B	A	B	A	C	B	A	B	A	B
Direct Yellow 132 [Dye No. III, reference compound]	A	A	A	A	A	A	A	A	D	C	C	D	D	A
